# PubChem BioAssay AID652272 | Drosophila RNAi Screening Center, 2013
# Purpose: 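Genome-wide knock-down search for components of Hedgehog signalling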 (primary screen)
# System: Drosophila clone 8 (Cl8) cells
# Knock-down reagent: long dsRNA against Drosophila genes
# Detection: 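Plate reader light from a firefly reporter under a ptc promoter fragment that responds to Hedgehog, with Renilla light as transfection reference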
# Reading the numbers: firefly Hh reporter signal: higher = more ptc reporter light; Renilla reference signal: higher = more Renilla control light
# Call rule: 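Hit when the z-score averaged over two replicates is under -2 or over +3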
# Calls: active = hit: reporter lowered or raised; inactive = not a hit
# The deposit covers about 21,000 reagents; this is a random part of those with a known target gene and a result. In the full data, 503 (2.4%) were called active. 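Raw plate light values, not normalised; calls rest on replicate z-scores that were not deposited; hits include reporter decreases as well as increases.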 Unmarked entries are inactive. A plus sign joins genes that one reagent is predicted to hit. No sequences are given here. Not stated in the record: the amount of reagent, the time to read-out.
Gene,DRSC id,"firefly Hh reporter signal, replicate 1","firefly Hh reporter signal, replicate 2","firefly Hh reporter signal, replicate 3","Renilla reference signal, replicate 1","Renilla reference signal, replicate 2"
cora (GeneID 37205),DRSC07597,71046,44123,,1213,3128
Mdr65 (GeneID 38726),DRSC11220,27152,4.39e5,72521,2970,25498
HP4 (GeneID 38887),DRSC10958,95827,67197,,4034,2941
Rif1 (GeneID 246445),DRSC05593,94256,2.41e5,,3782,10865
CG17826 (GeneID 39354),DRSC10289,53136,69040,59401,5303,4023
CG11454 (GeneID 33175),DRSC00310,1.13e5,48966,,4899,2377
CG30105 (GeneID 246459),DRSC05668,91926,2.44e5,,1946,9242
Ir7e (GeneID 7354417),DRSC18011,5.13e5,73138,,3000,3000
CG5850 (GeneID 34327),DRSC02905,76779,45895,,3509,2150
CalpB (GeneID 39165),DRSC11109,1.14e5,42554,,4614,1208
CG5381 (GeneID 34389),DRSC02852,1.12e5,74908,,2730,5996
CG17472 (GeneID 35320),DRSC02622,88674,56918,,2320,5335
CG1172 + Or83a,DRSC12357,52236,99322,,1830,2913
CG6418 (GeneID 39218),DRSC10633,70493,81570,,2250,3236
CG15125 (GeneID 37258),DRSC06547,1.22e5,65571,,3123,5152
Culd (GeneID 38946),DRSC10262,95180,94381,,4389,3365
nero (GeneID 43740),DRSC15432,82001,85760,,1858,2604
fws (GeneID 35054),DRSC02969,77303,32269,,2512,1124
CG18622 (GeneID 42044),DRSC15360,61696,1.23e5,,1335,2032
CG1698 (GeneID 36006),DRSC06640,80234,55283,,2976,2048
CG12498 (GeneID 31272),DRSC18635,91209,1.48e5,,3269,5957
Idua (GeneID 34544),DRSC02941,73794,43072,,3540,1883
Dnaaf5 (GeneID 318680),DRSC13032,54800,2.22e5,,11792,3993
Gem4b + Gem4c + Glos,DRSC18244,89852,1.76e5,,3289,6214
TfIIEalpha (GeneID 39313),DRSC11303,99977,90443,,4293,3401
cDIP (GeneID 42512),DRSC14267,84293,67270,,3190,2658
Rnf146 (GeneID 40144),DRSC11045,89040,73932,,3491,3047
Cpr65Ec (GeneID 38775),DRSC11025,67498,57804,,5808,4256
ChT (GeneID 42245),DRSC16296,64869,43973,,1969,2010
RecQ4 (GeneID 53438),DRSC11265,50618,40308,,4642,2912
Gr93a (GeneID 42568),DRSC14593,7.84e5,1.63e5,,48020,2720
Mpc1 (GeneID 42268),DRSC14770,1.14e5,90104,,3553,3253
CG7739 (GeneID 39684),DRSC10910,1.16e5,,,905,4036
Remo (GeneID 2768909),DRSC19710,81921,1.89e5,,944,6470
Cpr73D (GeneID 39897),DRSC11084,86461,50346,,4240,2568
CG14958 (GeneID 38387),DRSC08417,42422,19608,,1794,577
HDAC6 (GeneID 32461),DRSC20252,91853,1.09e5,,2016,2210
ArfGAP1 (GeneID 39417),DRSC11173,56810,35335,27587,2231,1929
mRpL18 (GeneID 36406),DRSC06142,95741,64608,,1472,4813
CG13073 (GeneID 39773),DRSC09956,1.27e5,,,5956,3505
CG18549 (GeneID 41538),DRSC15347,64456,1.19e5,,2813,3508
CG16989 (GeneID 31026),DRSC18535,75179,1.64e5,,3003,6809
Prosbeta1 (GeneID 46058),DRSC07159,52709,44149,,3737,2160
FoxL1 (GeneID 38471),DRSC08717,79868,50740,,2372,4796
Tmtc2 (GeneID 33276),DRSC00272,98842,87826,,4825,4272
svp (GeneID 41491),DRSC12899,43911,2.86e5,,10491,5740
svp (GeneID 41491),DRSC15311,27232 (active),25639,,1370,1305
svp (GeneID 41491),DRSC17075,1.34e5,6.57e5,1.88e5,4264,5179
Rab32 (GeneID 35940),DRSC05146,1.05e5,2.28e5,,2841,9364
Rab32 (GeneID 35940),DRSC07522,73190,62517,,3504,1866
mbc (GeneID 42817),DRSC16995,5.36e5,86387,,27415,3206
CR43359 (GeneID 12798534),DRSC03744,1.20e5,3.19e5,,2569,13688
Septin1 (GeneID 33114),DRSC20573,99128,2.90e5,,2003,10889
fne (GeneID 32245),DRSC20332,49409,1.88e5,,1477,6882
galene (GeneID 38133),DRSC08640,61558,35387,,2112,2738
galene (GeneID 38133),DRSC08641,1.07e5,59184,,3667,4961
CG30416 (GeneID 246603),DRSC04565,93640,77192,,1869,7273

Active calls, of those listed so far:
Gene,DRSC id,"firefly Hh reporter signal, replicate 1","firefly Hh reporter signal, replicate 2","firefly Hh reporter signal, replicate 3","Renilla reference signal, replicate 1","Renilla reference signal, replicate 2"
svp (GeneID 41491),DRSC15311,27232 (active),25639,,1370,1305
